This assay deals with T47D. The experiment in a line: Cytotoxicity against human T47D cells after 5 days. It counts as functional, cell-based. Particulars: 120 h.

The compound `CC/C(=C(\c1ccccc1)c1ccc(OCCN(C)C)cc1)c1ccccc1` [TAMOXIFEN] yielded an IC50 of 1.13 µM.

The record behind these values is ChEMBL document CHEMBL2062492, “Boron-Based 4-Hydroxytamoxifen Bioisosteres for Treatment of de Novo Tamoxifen Resistant Breast Cancer” (ACS Med Chem Lett, 2012).
